This is one part of the list. These are further read-outs of the screen, such as a control signal, another cell line or another target. No call is given for them. Compounds called inactive in the main read-out are mostly missing here. The note in brackets gives the kind of curve behind each potency; many fits are weak.
Experiment: qHTS Assay for Lipid Storage Modulators in Drosophila S3 Cells;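 as to cell number change: cells counted by Cell Tracker Red CMTPX staining in the red channel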
Conditions: BODIPY lipid droplet fluorescence, 18-24 h; for cell number change: measured here: cell count max response, cells fed with added oleic acid
Summary of the method: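 Laser-scanning cytometry quantifies lipid droplet accumulation (500–530 nm total intensity; droplet/cell object ratio) in oleic acid-fed (400 uM added) Drosophila S3 cells treated with a concentration series. 20 uM Triacsin C defined 100% inhibition.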

[1] = measured here: lipid fluorescence (Fed channel) AC50, cells fed with added oleic acid
[2] = measured here: cell number channel AC50, cells fed with added oleic acid

| Structure (SMILES) | cell number change [%] | AC50 [1] | AC50 [2] |
| --- | --- | --- | --- |
| COCc1cc(Sc2ccc(Cl)cc2)nc(-c2ccccc2)n1 | 9.94 | 6.51 µM [rising, single point] |  |
| Cc1ccc2oc3c(c(=O)c2c1)C(c1cccc(Cl)c1)N(CCCN1CCOCC1)C3=O (stereo not given) |  | 3.26 µM [rising, single point] | 2.91 µM [rising, single point] |
| CCc1ccc(N(C(=O)c2snc(C(N)=O)c2N)C(C(=O)NCC2CCCO2)c2cccs2)cc1 (stereo not given) | -32.6 | 18.4 µM [rising, single point] | 29.1 µM [falling, single point] |
| CC(=O)c1cc2c(cc1NC(=O)c1cc(C)nn1-c1ccccc1)OCO2 | 21.6 | 0.291 µM [rising, full curve] |  |
| Cc1onc(-c2ccccc2)c1C(=O)Oc1cccnc1 |  | 0.58 µM [rising, partial curve, poor fit] | 0.461 µM [rising, partial curve, poor fit] |
| Oc1cccc(C2c3[nH]c4ccccc4c3CCN2Cc2ccc3c(c2)CCO3)c1 (stereo not given) | -34.7 | 29.1 µM [falling, single point] | 16.4 µM [falling, single point] |
| COc1cccc2sc(Nc3nnc(-c4cccs4)o3)nc12 | -1.6 | 0.082 µM [falling, full curve, poor fit] |  |
| CCc1nc2ccccc2n1Cc1cc(=O)n2cc(C)ccc2n1 | 2.35 |  |  |
| Cc1nc(SCCC(=O)O)c2ccccc2n1 |  | 2.06 µM [falling, partial curve] |  |
| Cc1cc(/C=N/n2cnnc2)c(C)n1-c1ccc(OCc2ccc(Cl)cc2Cl)cc1 | -86.5 | 20.6 µM [falling, single point] | 25.9 µM [falling, single point] |
| COc1ccc(NS(=O)(=O)c2cccs2)cn1 | -3 | 29.1 µM [falling, single point] |  |
| O=C(CSc1nc(C(F)(F)F)cc(=O)[nH]1)Nc1cccc2ccccc12 | -0.161 | 0.731 µM [falling, full curve] | 1.03 µM [falling, partial curve, poor fit] |
| N#Cc1c(NC(=O)CSc2ncn(-c3ccccc3)n2)sc2c1CCCC2 | 49.3 | 11.6 µM [rising, partial curve] | 4.11 µM [rising, partial curve] |
| NC(=O)OCC(COC(N)=O)c1ccccc1 | -2.43 | 29.1 µM [rising, single point] |  |
| Nc1cc(=O)[nH]c(SCC(=O)Nc2ccc(S(=O)(=O)N3CCCCC3)cc2)n1 | 9.54 | 0.184 µM [falling, full curve, poor fit] |  |
| O=C(COc1ccc(-n2cnnn2)cc1)NCCc1ccc(F)cc1 |  | 29.1 µM [rising, single point] |  |
| CCCC(=O)N1CCN(c2nc3ccc(CC)cc3s2)CC1 | -8.5 |  |  |
| CCNC(=S)Nc1ccc(Cc2nc3ccccc3[nH]2)cc1 | -33.3 | 5.17 µM [falling, full curve, poor fit] |  |
| c1ccc(-c2csc(NC3CCCCC3)n2)cc1 | 19 | 29.1 µM [rising, single point] |  |

| Structure (SMILES) | cell number change [%] | AC50 [1] | AC50 [2] |
| --- | --- | --- | --- |
| O=C(Cn1cnc2ccccc2c1=O)Nc1ccccc1N1CCOCC1 |  | 0.146 µM [rising, full curve, poor fit] | 0.231 µM [rising, full curve, poor fit] |
| O=C(O)C1CC(=O)N(c2ccc(OCc3ccc(Cl)cc3Cl)cc2)C1 (stereo not given) | 25.7 | 1.84 µM [falling, partial curve] |  |
| CCOc1ccc(/C=N/NC(=O)c2nnn(-c3nonc3N)c2-c2ccc(OCC)cc2)cc1 |  | 3.66 µM [rising, single point] | 0.00517 µM [falling, full curve, poor fit] |
| CCOC(=O)Cc1csc(NC(=S)NC(=O)c2cc(OC)cc(OC)c2)n1 | -0.2 |  |  |
| COC(=O)c1ccc(NC(=S)N2CCN(C(=O)c3ccco3)CC2)cc1 | 13.6 |  |  |
| O=C(Cc1ccc(-c2ccccc2)cc1)NCCN1CCOCC1 | 28.1 | 5.17 µM [rising, partial curve] |  |
| COc1ccc(CNC(=O)CCCn2nc(C)n3ccnc3c2=O)cc1 | 2.88 | 1.3 µM [rising, full curve, poor fit] |  |
| COc1ccc(C(CC(=O)O)N2C(=O)CCC2=O)cc1 (stereo not given) | 6.02 | 29.1 µM [rising, single point] |  |
| CC1C=CCC2C(=O)N(c3cccc(C(=O)N4CCN(c5ccc(F)cc5)CC4)c3)C(=O)C12 (stereo not given) | 10.4 | 29.1 µM [rising, single point] |  |
| O=C(O)c1ccc(COc2ccc3c(c2)CCC3)cc1 | -8.86 | 0.651 µM [falling, full curve, poor fit] |  |
| COc1cc(/C=C2/SC(=Nc3ccc(O)cc3)NC2=O)ccc1O | -16.4 | 3.66 µM [falling, full curve, poor fit] | 6.51 µM [falling, single point] |
| Cc1ccc(S(=O)(=O)/N=C2/NC(=O)/C(=C/c3cc([N+](=O)[O-])ccc3O)S2)cc1 | -82.1 |  | 29.1 µM [falling, partial curve, poor fit] |
| Cc1ccc(-c2cc(C(F)(F)F)n3nc(C(=O)Nc4c(C)n(C)n(-c5ccccc5)c4=O)cc3n2)cc1 | 62.6 | 0.517 µM [falling, single point] | 29.1 µM [rising, single point] |
| COc1cccc(NC(=O)CCC(=O)N2CC(C)Oc3ccc(C)cc32)c1 (stereo not given) | -8.65 | 29.1 µM [falling, single point] |  |
| CCOC(=O)Cn1cnc2c(nnn2-c2cccc(Cl)c2)c1=O | 1.39 |  |  |
| O=c1c2ccccc2ncn1Cc1cccc2ccccc12 | 144 | 23.1 µM [rising, partial curve] | 29.1 µM [rising, single point] |
| CC1CN(C(=S)NC(=O)c2ccc(Cl)cc2)CC(C)O1 (stereo not given) | -0.482 | 0.0651 µM [rising, full curve, poor fit] |  |
| Cc1cc(C(=O)O[C@H]2[C@H](C)NS(=O)(=O)[C@H]3C[C@@H]4C=C[C@]23O4)cc([N+](=O)[O-])c1 | -32.1 | 0.259 µM [falling, partial curve, poor fit] | 3.66 µM [falling, full curve, poor fit] |
| CCC(C)(C(=O)NC1CCCCC1)N(CC1CCCO1)C(=O)c1ccccn1 (stereo not given) |  | 0.651 µM [falling, partial curve, poor fit] | 0.116 µM [falling, full curve, poor fit] |

| Structure (SMILES) | cell number change [%] | AC50 [1] | AC50 [2] |
| --- | --- | --- | --- |
| NC(=O)Cn1c(=O)n(CCC(=O)NCCSCc2ccccc2)c(=O)c2ccccc21 |  |  | 2.31 µM [rising, single point] |
| CC(=O)OC(C(=O)NCS(=O)(=O)c1ccc(C)cc1)c1cccnc1 (stereo not given) | 0.448 | 0.58 µM [rising, single point] |  |
| Cc1onc(-c2ccccc2)c1C(=O)NC(=S)NNC(=O)c1ccncc1 |  | 0.58 µM [rising, single point] | 0.58 µM [rising, single point] |
| NC(=O)c1c(NC(=O)CSc2nnc(Cc3ccccc3)n2Cc2ccco2)sc2c1CCC2 | 33.5 |  | 8.2 µM [rising, partial curve] |
| O=[N+]([O-])c1ccc(Cl)c(/C=N/N2CCN(c3ccccc3)CC2)c1 | -33.9 | 0.116 µM [falling, partial curve, poor fit] | 0.731 µM [falling, partial curve, poor fit] |
| Cc1nnc(NC(=O)CN2C(=O)NC3(CCCC3)C2=O)s1 | -34.7 | 0.82 µM [falling, full curve] |  |
| Cc1ccc(C)c(-c2nc3cc(N)ccc3o2)c1 | 220 | 1.84 µM [rising, full curve] | 2.06 µM [rising, full curve] |
| COCC1OS(=O)(=O)NC(CC(=O)SC(C)(C)C)C1C (stereo not given) | 6.15 |  |  |
| CC(C)NC(=O)C1CC=CCC1C(=O)O (stereo not given) | -25.2 |  | 0.103 µM [falling, full curve, poor fit] |
| CN(C)S(=O)(=O)c1ccc2c(c1)C(CC(=O)O)NC2=O (stereo not given) | 1.11 | 6.51 µM [rising, single point] |  |
| C=CCCCCc1nc2ccccc2c(=O)n1N | 32.4 | 29.1 µM [rising, single point] | 16.4 µM [rising, partial curve] |
| COc1ccc2oc(-c3ccccc3)c(C(N)=O)c2c1 | -22.2 | 10.3 µM [rising, partial curve] |  |
| COc1cc(C(=O)NCC(=O)NCCN2C(=O)S/C(=C\c3ccccc3Cl)C2=O)cc(OC)c1OC | 79.1 |  | 8.2 µM [rising, partial curve] |
| CC(=O)c1ccc(OCCCC(=O)NC2CCC(C)CC2)cc1 (stereo not given) | -2.38 | 3.66 µM [rising, partial curve] |  |
| COc1ccc(OCC(=O)NNC(=O)C(=O)Nc2ccc(C)cc2)cc1 | -2.74 | 2.31 µM [rising, full curve] |  |
| CCn1c(=O)c(-c2ccccc2)c(O)c2ccccc21 | -9.13 |  |  |
| C[N+](C)=C1SCC(C)(/C=N/O)S1 (stereo not given) | -41.1 | 0.58 µM [falling, full curve, poor fit] |  |
| CCn1cc(C(=O)O)c(=O)c2cc(F)c(N3CCN(C(=S)NC(=O)c4c(OC)cccc4OC)CC3)cc21 | 171 | 29.1 µM [rising, single point] | 29.1 µM [rising, single point] |

Single entries from the results shown:
AC50 [2] with `COc1cc(C(=O)NCC(=O)NCCN2C(=O)S/C(=C\c3ccccc3Cl)C2=O)cc(OC)c1OC` is entered as 8.2 µM [rising, partial curve]
cell number change [%] with `CC(=O)c1ccc(OCCCC(=O)NC2CCC(C)CC2)cc1` (stereo not given) is entered as -2.38
AC50 [1] with `CC(=O)OC(C(=O)NCS(=O)(=O)c1ccc(C)cc1)c1cccnc1` (stereo not given) is entered as 0.58 µM [rising, single point]
AC50 [2] with `CC(C)NC(=O)C1CC=CCC1C(=O)O` (stereo not given) is entered as 0.103 µM [falling, full curve, poor fit]

Source: PubChem BioAssay AID2685 (National Center for Advancing Translational Sciences (NCATS), 2010)
